The text below walks through data of PubChem BioAssay AID1508600 (Functional Genomics Laboratory (NCATS/FGL), 2020).

In all, about 53,000 sequences went through this assay and about 3,700 (7%) were called active.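 The calls were made as follows: active = gene knockdowns whose robust z-score for IL-1 alpha signal is at least 2 or at most -2, so actives lie on both sides; inactive = the rest.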 The list shows a part of the results.

A short description of this assay: Components of the Cytosolic LPS Sensing Pathway: Gene Identification via Genome-wide siRNA Screen.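 Also: robust z of the log signal after scaling to non-targeting control siRNA wells of the plate.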 Conditions: RAW264.7 macrophages, IL-1a HTRF, actives lie on both sides, screened at 100 nM (by protocol), cells primed 5 h with Pam3CSK4 first. An outline of the steps: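 Using IL-1a HTRF as read-out, the screen measured release from RAW264.7 cells after 48h siRNA knockdown (100 nM), 5 h Pam3CSK4 priming and 24 h cytosolic LipidA. Values were expressed relative to negative-control wells as robust z-scores.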
(Time-resolved FRET reads energy transfer from a long-lived donor to a nearby acceptor.)
With CCAGGUUGUAAAAACAGUUTT against Rdx, the z-score is inactive: -0.356. For “GGACAUCAUAUUCGUUUUCTT against C130026L21Rik”, the z-score is inactive: 1.12. Take GGAAAGAGAAAAACAACCATT against Cngb3: the z-score was inactive: -0.522. As to GCCUGGACAAGUUUCUGAATT against Olfr726, the z-score was inactive: 0.0426.

As for AAACGAUUCUGCAUUUAGCTT against Crh, the z-score was inactive: 1.5.

For CCAAAACCGCACAGUAGUATT against Olfr1065, the z-score is inactive: 0.0232.

Regarding CGAGUAUUUUGAAAUCCUGTT against Cdcp3, the z-score was inactive: 0.406. The value for GGAGAUUUACCGCUACAGUTT against Scrib was inactive: 0.855; that for GUCCUUGGGACAUUCUCUUTT against Olfr168 was inactive: -0.997. In the case of GCCAAUACCUAAGUUCUAUTT against F8a, the z-score is inactive: 0.297. On to GGAACAAAAAGAUCUUUGATT against Pdzrn3, for which the z-score was inactive: -1.01.

On to GGUGAACAGUUGAUUUCAUTT against Smim10l2a, for which the z-score is inactive: 1.48. As for GGAAAUACAAGCCUUAAAUTT against Trabd, the z-score was inactive: 0.5. Turning to GGCUGCAAGGACAAGAGAATT against Fam174c, the z-score was inactive: 1.66. For GGCUGUGUUGAAAGUUUUCTT against Olfr564, the z-score is inactive: 0.32. For GGAUCUGAAGAACAAGAUCTT against Krt17, the z-score was inactive: 0.399. On to GGUACAAGAUCAAGUCUCCTT against Scml4, for which the z-score was inactive: -0.265. Turning to GGGCAGGUCUUCUUCCUCATT against Hoxd4, the z-score was inactive: -0.549.

Take GGACUAUUUGCUGAUGGACTT against Trpc6: the z-score was active: 2.74.

For the sequence CCUGGCUGUAAUCACCAUCTT against Olfr1160, the z-score was inactive: 0.953. Regarding GGAACACUGUAUCUUACGGTT against Mtmr6, the z-score was inactive: 0.599. Regarding GGAAAUCCUUAAAUCUGUCTT against Gk2, the z-score is inactive: -0.49. On to GGAACUCAAACAUGAGCGGTT against Atp5j2, for which the z-score was inactive: 0.649. Take GGGUCAGACAUUAAUGUGATT against Traf1: the z-score is inactive: -0.173.

Consider GGAGCUUGCUGGAUUCAUATT against Ccdc126, for which the z-score is inactive: -1.81. Consider GGCUUCCUGGCUCAUCCAATT against Etv1, for which the z-score was inactive: 0.479. As to CCACUUCAUGAUUGAGUGCTT against Phf8-ps, the z-score is inactive: -0.836.

Regarding GGAAUUGAUAUUUUGGUGATT against Hsdl2, the z-score was inactive: -0.177.

Turning to GGAGAUCCGAGUGAGGAAUTT against Eif3b, the z-score is active: 2.91. On to GCCUGAUUGACUUAGAGUCTT against Eps8, for which the z-score was inactive: 0.821. For GCAUCCAUCUCCAUCAUGGTT against Olfr988 the value was inactive: -1.63; for GGCCCUUUAAAAAUAAAGCTT against Ppp1r14b, inactive: -1.17.

As for GGACACCCUUAUAUUUGUCTT against Olfr1216, the z-score is inactive: 1.2. For CCUCAUGCCUCAUUUCAAATT against Arhgef6 the value was inactive: -0.603.

As to GGCAUCUCUGAGUUACAUUTT against Snu13, the z-score is inactive: 0.695. The value for AGGAAAACGCAUAGCUUAUTT against Platr28 was inactive: 0.372. Take GCACCUAAGUAAGAUUUGATT against Txlnb: the z-score is inactive: -0.93.

GCCCUUAUUCCAGUCAGUUTT against Cgnl1: the z-score is inactive: 0.325.

With “CCGGCCUAUCAGAGAUUGCTT against 2200002J24Rik”, the z-score is inactive: -0.118. For the sequence GGCCUUAACUACUCUGAAGTT against Pld5, the z-score is inactive: -1.36. As for CGGUCUUCCUACUUUUGGUTT against Qars, the z-score is inactive: 0.523. As to GGAGAUCCCUAUUAUAAAGTT against Ankfy1, the z-score is inactive: 1.06.

For the sequence GCCUUCGAGCUACGAUUAATT against Slc27a5, the z-score was inactive: 0.57. For GCAGAAGUACGAAGGAGAATT against Abcd3 the value was inactive: -1.02; for CCCACAUUAAAUGAAUAGGTT against Traf4, inactive: -0.832. In the case of GGCUCAGAUUGAUAGGAUATT against Gmfg, the z-score was inactive: 0.103. For CCUGAGCCUGGUCUUAUGUTT against Olfr1423, the z-score is inactive: -0.321.

On to AUACUGGCUACAGUUUUUGTT against Olfr834, for which the z-score was inactive: 1.75.

For the sequence GCUCUGUUGUGGAUGCAAUTT against Lonrf2, the z-score is inactive: 0.859. For CCUCGUAAGCGUGUGGAUUTT against Brsk1 the value was inactive: 0.225; for GGCAUUCAUGGAGACUGUGTT against Zfpl1, inactive: -0.467. For GGUCAAUGUGAUUGAGGAUTT against Acap1, the z-score is inactive: 0.869. Turning to GCAGCACAGAAAUGUUUCCTT against Tas2r106, the z-score is inactive: 0.918.

Consider GGUAGAACCCAUGACAGCUTT against Uba7, for which the z-score is inactive: -0.442. For CCAUUUUUCAGAUUGUGAUTT against Tnfaip8, the z-score was inactive: -0.822. In the case of GGAGGACCUGAAGCUUCAGTT against Retsat, the z-score was inactive: 0.755.

Take GCUGCACUAAAAAUCAAUUTT against Sall1: the z-score is inactive: -1.22. The value for GGUGGUCUCUGGCCUUUAUTT against Ccr8 was inactive: 0.125; that for “CCUAUCUCUUAGCAAAGAUTT against 2010003K11Rik” was active: 2.87.

For the sequence CCAUGACCUAGACUCUACATT against Pxdn, the z-score is inactive: -0.238. The value for GCCAGUAGUAGUAGAAUAATT against Gm4841 was inactive: 0.997; that for GGAAACUUUACUUUCAUGGTT against Kcnu1 was inactive: -0.305. For the sequence GCAGAAAGCAUACGGAGGCTT against Nfatc2ip, the z-score was inactive: 0.0321. For the sequence GGAGAUGGCAAUUCCGGUUTT against Aldh18a1, the z-score is inactive: 1.42. Take GGCAGAAGCCGUUAGAGAUTT against Cep295nl: the z-score is inactive: 0.35. With GGCAUUCCUCGGAAGUCAATT against Smad7, the z-score is inactive: -0.372. Consider GGAGCAGAGGCUACAAAGATT against Prc1, for which the z-score is inactive: -0.318. On to GCAAAGAAGUUGGGAUAUCTT against Rad51c, for which the z-score is inactive: -1.27.
